Assay results reported in PMC11077089, “Molecular basis of A. thaliana KEOPS complex in biosynthesizing tRNA t^6A” (Nucleic Acids Research, 2024).

Tests used:
Test in all cases: EMSA
Conditions in all cases: EMSA: 20 mM Tris-HCl pH 7.5, 300 mM NaCl, 5 mM b-mercaptoethanol, 20% glycerol, agarose gel in Tris-glycine pH 8.0 (8.5 for FAM-RNA), 4 C; recombinant protein; label: 5' 6-FAM
BUD32 + CGI121 = tested on: BUD32 + CGI121
[1] = tested on: KAE1 + BUD32 G226A + CGI121 + PCC1
[2] = tested on: KAE1 + BUD32 G226R + CGI121 + PCC1
[3] = tested on: KAE1 + BUD32 I225A + CGI121 + PCC1
[4] = tested on: KAE1 + BUD32 K221A + CGI121 + PCC1
[5] = tested on: KAE1 + BUD32 M224A + CGI121 + PCC1
[6] = tested on: KAE1 + BUD32 R222A + CGI121 + PCC1
[7] = tested on: KAE1 + BUD32 T223A + CGI121 + PCC1

GCGCCUGUAGCUCAGUGGAUAGAGCGUCUGUUUCCUAAGCAGAAGGUCGUAGGUUCGACCCCUACCUGGCGCGCCA [5'-6FAM-tRNAArgCCU]
binding result (BUD32 + CGI121): binds more weakly
binding result [1]: binds
binding result [2]: binds
binding result [3]: binds
binding result [4]: binds
binding result [5]: binds
binding result [6]: binds
binding result [7]: binds

Construct, isoform or probe ends are uncertain for at least one entry. For some assays here: Weaker means in comparison with the reference protein, sequence or condition of that experiment. For some assays here: At least one verdict was read from the data and is not stated in words by the source.
